# Results reported in patent publication US10233240.
# Results are given in words; binding and its absence hold for the method and conditions named. In cells and extracts the contact can be indirect. Some entries that bind do so weakly or less than the wild type.
# T1: Mesothelin (mouse) (UniProt Q61468)
# T1 sequence (looked up): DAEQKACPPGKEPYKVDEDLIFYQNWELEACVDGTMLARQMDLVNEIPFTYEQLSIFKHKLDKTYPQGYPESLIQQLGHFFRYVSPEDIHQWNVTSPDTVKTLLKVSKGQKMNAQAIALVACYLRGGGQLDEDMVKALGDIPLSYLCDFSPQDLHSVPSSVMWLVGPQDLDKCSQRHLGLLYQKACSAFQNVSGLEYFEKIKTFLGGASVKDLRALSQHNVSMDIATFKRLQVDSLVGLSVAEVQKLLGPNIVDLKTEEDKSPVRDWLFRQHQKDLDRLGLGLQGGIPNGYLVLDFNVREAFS
# Assays:
# Mesothelin (mouse) [1] = target: T1, Mesothelin (mouse); assay: co-immunoprecipitation with anti-Msln Ab, Western blot for Thy-1, n=3
# Mesothelin (mouse) [2] = target: T1, Mesothelin (mouse); assay: co-immunoprecipitation with anti-Msln Ab from immortalized aPF lysates, Western blot
binder,measurement,setting,value
"Thy-1 (protein, mouse, UniProt P01831 20-131, looked up) QKVTSLTACLVNQNLRLDCRHENNTKDNSIQHEFSLTREKRKHVLSGTLGIPEHTYRSRVTLSNQPYIKVLTLANFTTKDEGDYFCELQVSGANPMSSNKSISVYRDKLVKC",binding,Mesothelin (mouse) [1],binds
same,binding,Mesothelin (mouse) [2],binds
